The supplement of paper PMC12823440, “Inhibitors supercharge kinase turnover through native proteolytic circuits” (Nature, 2025)
Structures can show the parent of a compound that is named as a salt. The list shows a part of the results. The calls rarely recur for the same compound in another form.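 Kinases, fused to nanoluciferase, were expressed in K562 cells; luminescence was measured every 4 h from 2 to 18 h as percent of control (DMSO = 100%, positive control = 0%). A time point is decreased if signal falls significantly (2 sigma). Hits were called by the authors by a rule that is not shown; the count of time points alone does not decide it.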

Protein sequences, listed by entry. Tags and fused reporters are not part of them. Lines headed by an entry give the natural chain unless they say otherwise; changes in a name come on top.
UniProt Q9Y616: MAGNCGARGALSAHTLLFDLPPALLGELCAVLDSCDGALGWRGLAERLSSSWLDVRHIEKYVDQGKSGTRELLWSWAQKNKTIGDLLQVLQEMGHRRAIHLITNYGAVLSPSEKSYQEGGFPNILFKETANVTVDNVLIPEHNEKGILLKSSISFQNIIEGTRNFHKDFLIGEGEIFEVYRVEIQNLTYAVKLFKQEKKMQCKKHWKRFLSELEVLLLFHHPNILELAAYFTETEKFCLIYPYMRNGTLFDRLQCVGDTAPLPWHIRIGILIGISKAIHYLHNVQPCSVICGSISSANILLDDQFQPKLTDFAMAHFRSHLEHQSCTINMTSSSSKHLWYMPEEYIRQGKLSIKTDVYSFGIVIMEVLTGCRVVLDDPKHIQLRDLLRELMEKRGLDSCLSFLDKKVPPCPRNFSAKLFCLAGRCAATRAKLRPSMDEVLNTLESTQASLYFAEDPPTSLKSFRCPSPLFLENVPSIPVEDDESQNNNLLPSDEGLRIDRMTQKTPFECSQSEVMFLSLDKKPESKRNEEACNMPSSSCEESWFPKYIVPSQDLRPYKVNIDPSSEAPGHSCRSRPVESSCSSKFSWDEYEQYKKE
UniProt P23458: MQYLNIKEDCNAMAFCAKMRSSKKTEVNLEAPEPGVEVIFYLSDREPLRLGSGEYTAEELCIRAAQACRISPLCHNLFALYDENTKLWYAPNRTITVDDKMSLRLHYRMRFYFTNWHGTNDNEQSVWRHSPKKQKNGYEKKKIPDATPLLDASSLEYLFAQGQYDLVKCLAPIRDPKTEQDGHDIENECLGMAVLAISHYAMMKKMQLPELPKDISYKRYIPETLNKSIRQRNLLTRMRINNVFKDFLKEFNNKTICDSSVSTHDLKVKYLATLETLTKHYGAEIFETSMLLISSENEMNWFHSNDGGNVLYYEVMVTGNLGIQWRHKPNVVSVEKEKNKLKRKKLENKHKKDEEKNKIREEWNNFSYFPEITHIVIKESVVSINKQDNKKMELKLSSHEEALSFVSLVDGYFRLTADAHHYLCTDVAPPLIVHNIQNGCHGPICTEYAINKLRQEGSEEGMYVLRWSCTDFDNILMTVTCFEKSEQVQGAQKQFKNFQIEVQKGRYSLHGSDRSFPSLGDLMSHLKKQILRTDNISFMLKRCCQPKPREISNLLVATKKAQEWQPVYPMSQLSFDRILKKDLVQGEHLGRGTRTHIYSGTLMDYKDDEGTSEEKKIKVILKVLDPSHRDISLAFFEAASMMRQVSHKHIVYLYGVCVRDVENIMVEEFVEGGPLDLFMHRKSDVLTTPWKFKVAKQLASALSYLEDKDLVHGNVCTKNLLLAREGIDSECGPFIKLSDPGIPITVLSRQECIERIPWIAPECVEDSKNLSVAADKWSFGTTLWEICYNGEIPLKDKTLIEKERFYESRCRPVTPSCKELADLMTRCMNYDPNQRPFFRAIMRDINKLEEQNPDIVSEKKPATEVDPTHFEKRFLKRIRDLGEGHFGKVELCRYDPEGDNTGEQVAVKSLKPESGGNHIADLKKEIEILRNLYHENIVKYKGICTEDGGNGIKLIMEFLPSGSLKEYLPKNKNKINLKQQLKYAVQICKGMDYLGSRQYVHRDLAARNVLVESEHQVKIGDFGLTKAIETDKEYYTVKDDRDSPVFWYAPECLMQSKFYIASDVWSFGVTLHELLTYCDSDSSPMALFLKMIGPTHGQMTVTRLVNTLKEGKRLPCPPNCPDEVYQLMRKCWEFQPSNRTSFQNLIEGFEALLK
UniProt P06239: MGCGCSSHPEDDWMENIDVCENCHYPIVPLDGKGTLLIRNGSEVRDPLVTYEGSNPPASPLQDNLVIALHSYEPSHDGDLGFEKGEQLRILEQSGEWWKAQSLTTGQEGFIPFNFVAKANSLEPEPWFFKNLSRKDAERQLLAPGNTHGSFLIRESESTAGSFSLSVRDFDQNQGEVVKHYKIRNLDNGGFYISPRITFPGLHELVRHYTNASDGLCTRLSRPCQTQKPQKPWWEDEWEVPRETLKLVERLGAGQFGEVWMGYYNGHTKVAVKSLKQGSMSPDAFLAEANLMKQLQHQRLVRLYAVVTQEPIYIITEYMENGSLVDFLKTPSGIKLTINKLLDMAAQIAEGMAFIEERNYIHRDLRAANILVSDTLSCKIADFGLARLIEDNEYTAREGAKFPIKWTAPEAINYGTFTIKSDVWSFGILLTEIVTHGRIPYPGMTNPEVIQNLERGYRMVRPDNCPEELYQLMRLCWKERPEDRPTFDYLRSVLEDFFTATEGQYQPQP
UniProt P53667: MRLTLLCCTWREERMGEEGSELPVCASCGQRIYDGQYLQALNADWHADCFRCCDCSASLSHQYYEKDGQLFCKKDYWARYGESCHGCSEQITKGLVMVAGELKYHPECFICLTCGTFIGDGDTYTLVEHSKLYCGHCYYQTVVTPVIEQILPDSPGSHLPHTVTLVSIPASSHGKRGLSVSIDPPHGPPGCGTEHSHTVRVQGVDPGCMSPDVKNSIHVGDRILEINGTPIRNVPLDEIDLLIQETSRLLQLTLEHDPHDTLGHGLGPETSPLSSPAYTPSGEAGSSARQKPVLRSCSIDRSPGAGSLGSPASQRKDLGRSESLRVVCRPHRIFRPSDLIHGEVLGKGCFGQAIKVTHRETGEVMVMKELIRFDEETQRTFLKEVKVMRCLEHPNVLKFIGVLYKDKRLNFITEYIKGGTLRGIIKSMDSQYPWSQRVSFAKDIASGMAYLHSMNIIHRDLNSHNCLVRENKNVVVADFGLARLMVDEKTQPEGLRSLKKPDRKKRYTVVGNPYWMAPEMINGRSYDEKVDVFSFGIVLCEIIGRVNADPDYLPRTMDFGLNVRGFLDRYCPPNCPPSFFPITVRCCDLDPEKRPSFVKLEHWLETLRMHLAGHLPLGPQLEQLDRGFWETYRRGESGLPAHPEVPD
UniProt P53671: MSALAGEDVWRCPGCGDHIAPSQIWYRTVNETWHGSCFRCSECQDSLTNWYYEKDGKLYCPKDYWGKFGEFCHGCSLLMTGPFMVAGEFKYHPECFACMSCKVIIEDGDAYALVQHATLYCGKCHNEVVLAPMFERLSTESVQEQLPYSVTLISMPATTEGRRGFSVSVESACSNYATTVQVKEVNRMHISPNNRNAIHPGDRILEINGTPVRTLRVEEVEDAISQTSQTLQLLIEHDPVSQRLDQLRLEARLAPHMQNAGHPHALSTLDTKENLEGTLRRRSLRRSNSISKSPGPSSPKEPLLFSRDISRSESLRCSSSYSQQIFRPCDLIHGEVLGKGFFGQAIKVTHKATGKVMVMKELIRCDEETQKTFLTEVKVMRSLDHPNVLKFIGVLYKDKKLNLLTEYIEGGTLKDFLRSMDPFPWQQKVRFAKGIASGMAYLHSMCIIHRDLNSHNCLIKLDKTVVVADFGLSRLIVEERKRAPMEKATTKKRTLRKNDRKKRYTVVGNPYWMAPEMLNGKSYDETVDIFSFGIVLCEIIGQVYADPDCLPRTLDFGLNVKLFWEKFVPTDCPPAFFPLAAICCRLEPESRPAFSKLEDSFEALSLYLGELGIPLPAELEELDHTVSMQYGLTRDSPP
UniProt Q8IWU2: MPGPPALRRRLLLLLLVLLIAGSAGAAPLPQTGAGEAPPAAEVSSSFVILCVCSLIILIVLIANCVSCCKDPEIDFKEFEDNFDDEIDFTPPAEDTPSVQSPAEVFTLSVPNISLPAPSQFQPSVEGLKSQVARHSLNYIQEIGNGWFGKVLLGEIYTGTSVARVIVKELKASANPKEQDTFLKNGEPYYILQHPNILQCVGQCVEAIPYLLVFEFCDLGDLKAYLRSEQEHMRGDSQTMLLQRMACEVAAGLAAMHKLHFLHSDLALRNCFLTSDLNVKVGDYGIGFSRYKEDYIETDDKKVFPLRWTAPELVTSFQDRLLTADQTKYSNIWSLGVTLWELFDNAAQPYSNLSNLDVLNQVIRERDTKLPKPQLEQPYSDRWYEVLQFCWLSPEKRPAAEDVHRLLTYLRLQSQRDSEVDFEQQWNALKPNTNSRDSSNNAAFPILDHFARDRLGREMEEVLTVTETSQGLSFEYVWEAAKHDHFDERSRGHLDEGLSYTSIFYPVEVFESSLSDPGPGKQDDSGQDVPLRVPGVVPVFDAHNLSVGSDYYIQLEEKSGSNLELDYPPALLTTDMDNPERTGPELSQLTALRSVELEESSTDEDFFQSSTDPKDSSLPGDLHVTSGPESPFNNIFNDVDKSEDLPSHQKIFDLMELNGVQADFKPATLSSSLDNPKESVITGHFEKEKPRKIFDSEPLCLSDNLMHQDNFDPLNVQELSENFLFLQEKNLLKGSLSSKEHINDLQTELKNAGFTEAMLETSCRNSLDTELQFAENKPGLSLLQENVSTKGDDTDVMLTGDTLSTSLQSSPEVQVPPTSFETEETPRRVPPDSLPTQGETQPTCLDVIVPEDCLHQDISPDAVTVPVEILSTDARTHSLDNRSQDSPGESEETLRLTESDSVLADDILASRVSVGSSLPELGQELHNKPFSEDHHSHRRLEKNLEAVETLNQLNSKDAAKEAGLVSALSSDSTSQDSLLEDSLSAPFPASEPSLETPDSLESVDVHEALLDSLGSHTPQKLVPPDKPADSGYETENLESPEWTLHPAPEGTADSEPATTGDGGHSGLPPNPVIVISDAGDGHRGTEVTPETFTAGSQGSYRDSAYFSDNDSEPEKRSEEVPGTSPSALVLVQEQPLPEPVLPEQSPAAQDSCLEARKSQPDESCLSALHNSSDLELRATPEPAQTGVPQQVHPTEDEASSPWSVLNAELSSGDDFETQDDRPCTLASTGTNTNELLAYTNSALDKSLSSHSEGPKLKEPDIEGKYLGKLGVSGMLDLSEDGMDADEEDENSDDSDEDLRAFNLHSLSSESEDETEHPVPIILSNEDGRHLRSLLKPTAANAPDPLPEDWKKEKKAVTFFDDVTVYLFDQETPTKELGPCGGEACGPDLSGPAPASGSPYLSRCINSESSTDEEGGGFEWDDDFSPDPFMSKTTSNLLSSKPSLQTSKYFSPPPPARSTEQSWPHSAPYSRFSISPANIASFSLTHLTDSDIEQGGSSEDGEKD
UniProt P07948: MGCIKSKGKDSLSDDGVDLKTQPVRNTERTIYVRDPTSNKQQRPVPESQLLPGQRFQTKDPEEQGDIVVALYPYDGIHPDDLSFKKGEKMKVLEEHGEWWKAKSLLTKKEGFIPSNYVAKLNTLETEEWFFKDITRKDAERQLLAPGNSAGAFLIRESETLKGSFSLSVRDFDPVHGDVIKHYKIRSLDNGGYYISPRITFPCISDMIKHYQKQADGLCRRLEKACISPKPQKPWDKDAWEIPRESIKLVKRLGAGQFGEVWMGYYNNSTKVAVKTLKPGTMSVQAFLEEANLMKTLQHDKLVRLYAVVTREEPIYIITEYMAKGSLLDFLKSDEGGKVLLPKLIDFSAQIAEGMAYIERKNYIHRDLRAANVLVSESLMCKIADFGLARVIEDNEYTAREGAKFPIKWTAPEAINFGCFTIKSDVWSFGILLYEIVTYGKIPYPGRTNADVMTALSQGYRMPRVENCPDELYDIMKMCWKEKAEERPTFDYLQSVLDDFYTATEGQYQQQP
UniProt Q12851: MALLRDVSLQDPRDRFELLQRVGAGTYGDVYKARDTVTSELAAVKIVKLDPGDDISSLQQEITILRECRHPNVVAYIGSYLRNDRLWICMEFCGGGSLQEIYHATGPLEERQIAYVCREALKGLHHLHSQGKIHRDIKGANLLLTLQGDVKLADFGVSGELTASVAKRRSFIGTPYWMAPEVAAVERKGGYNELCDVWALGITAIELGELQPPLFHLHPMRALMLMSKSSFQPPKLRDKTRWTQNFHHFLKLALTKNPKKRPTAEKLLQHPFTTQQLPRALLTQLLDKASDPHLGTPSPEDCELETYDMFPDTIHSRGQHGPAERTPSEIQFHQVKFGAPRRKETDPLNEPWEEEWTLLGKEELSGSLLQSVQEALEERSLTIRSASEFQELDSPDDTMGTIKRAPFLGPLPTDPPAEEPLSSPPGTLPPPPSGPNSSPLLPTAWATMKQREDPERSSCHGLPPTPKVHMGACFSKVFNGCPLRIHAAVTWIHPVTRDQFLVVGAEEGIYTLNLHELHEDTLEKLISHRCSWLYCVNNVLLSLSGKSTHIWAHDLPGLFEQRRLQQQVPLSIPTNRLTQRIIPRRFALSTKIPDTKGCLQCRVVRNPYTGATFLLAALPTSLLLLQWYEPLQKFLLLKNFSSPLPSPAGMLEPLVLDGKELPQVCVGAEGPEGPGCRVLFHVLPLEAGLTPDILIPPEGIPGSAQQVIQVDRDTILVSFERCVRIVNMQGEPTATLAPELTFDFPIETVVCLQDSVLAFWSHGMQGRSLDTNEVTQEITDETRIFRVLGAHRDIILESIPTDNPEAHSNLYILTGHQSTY

Experiments:
Experiment in all cases: kinase-Nluc reporter destabilization hit call (1 = scored as downregulated) (binary); higher = compound decreases kinase abundance
Settings in all cases: K562; 2-18 h
IRAK3 = IRAK3 (UniProt Q9Y616)
JAK1 = JAK1 (UniProt P23458)
LCK = LCK (UniProt P06239)
LIMK1 = LIMK1 (UniProt P53667)
LIMK2 = LIMK2 (UniProt P53671)
LMTK2 = LMTK2 (UniProt Q8IWU2)
LYN = LYN (UniProt P07948)
MAP2K1 = MAP2K1 (UniProt Q02750)
MAP2K2 = MAP2K2 (UniProt P36507)
MAP4K2 = MAP4K2 (UniProt Q12851)

Measured: kinase-Nluc reporter destabilization hit call

C[C@]1(O)C[C@@](N)(c2ccc(-c3nc4n(c3-c3ccccc3)COc3ccncc3-4)cc2)C1 [TAS-117 (hydrochloride)] (10 µM)
inactive: IRAK3 = 0 | JAK1 = 0 | LCK 0 | LIMK1 = 0 | LIMK2 = 0 | LMTK2 = 0 | LYN 0 | MAP2K1 = 0 | MAP2K2 = 0 | MAP4K2 = 0

Cc1c(Br)c(Br)c2c3c1nc(N1CCNCC1)n3CCC2 [SEL120-34A (monohydrochloride)] (2.5 µM)
inactive: IRAK3 = 0 | JAK1 = 0 | LCK 0 | LIMK1 = 0 | LIMK2 = 0 | LMTK2 = 0 | LYN 0 | MAP2K1 = 0 | MAP2K2 = 0 | MAP4K2 = 0

CS(=O)(=O)N1CCN(Cc2cn3cc(-c4cnc(N)nc4)nc(N4CCOCC4)c3n2)CC1 (10 µM)
inactive: IRAK3 = 0 | JAK1 = 0 | LCK 0 | LIMK1 = 0 | LIMK2 = 0 | LMTK2 = 0 | LYN 0 | MAP2K1 = 0 | MAP2K2 = 0 | MAP4K2 = 0

CC[C@@H]1CN(C(=O)NCC(F)(F)F)C[C@@H]1c1cnc2cnc3[nH]ccc3n12 [Upadacitinib] (10 µM)
inactive: IRAK3 = 0 | JAK1 = 0 | LCK 0 | LIMK1 = 0 | LIMK2 = 0 | LMTK2 = 0 | LYN 0 | MAP2K1 = 0 | MAP2K2 = 0 | MAP4K2 = 0
